# In article PMC8384837:
# Substitutions are numbered along the chain they refer to. The list shows a part of the results. For some of these results: At the low end of the ranking, values are background and their order means little.
# Legend:
# Settings in all cases: yeast three-hybrid, YBZ-1, SC-Leu-His + 0.5 mM 3-AT, 4 days
# [1] = biological target: T1, PUM1 PUF domain R2-AVA N899A + Y900V + Q903A (UniProt Q14671)
# T1 sequence: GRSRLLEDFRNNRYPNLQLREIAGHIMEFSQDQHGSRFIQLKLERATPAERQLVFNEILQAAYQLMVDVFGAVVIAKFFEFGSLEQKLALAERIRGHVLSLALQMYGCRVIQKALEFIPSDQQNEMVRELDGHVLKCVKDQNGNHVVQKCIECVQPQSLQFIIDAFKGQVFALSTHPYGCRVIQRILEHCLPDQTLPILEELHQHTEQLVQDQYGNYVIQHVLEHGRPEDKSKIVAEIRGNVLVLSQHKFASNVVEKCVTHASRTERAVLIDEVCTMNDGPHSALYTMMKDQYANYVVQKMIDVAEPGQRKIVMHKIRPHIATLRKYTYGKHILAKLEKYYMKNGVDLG
# [2] = biological target: T2, PUM1 PUF domain R2-EPW N899E + Y900P + Q903W (UniProt Q14671)
# T2 sequence: T1 sequence with A72E, V73P, A76W
# [3] = biological target: T3, PUM1 PUF domain R2-EWD N899E + Y900W + Q903D (Homo sapiens) (UniProt Q14671)
# T3 sequence: T1 sequence with A72E, V73W, A76D
# [4] = biological target: T4, PUM1 PUF domain R2-GFD N899G + Y900F + Q903D (UniProt Q14671)
# T4 sequence: T1 sequence with A72G, V73F, A76D
# [5] = biological target: T5, PUM1 PUF domain R2-RRA N899R + Y900R + Q903A (Homo sapiens) (UniProt Q14671)
# T5 sequence: T1 sequence with A72R, V73R
# [6] = biological target: T6, PUM1 PUF domain R2-RRG N899R + Y900R + Q903G (Homo sapiens) (UniProt Q14671)
# T6 sequence: T1 sequence with A72R, V73R, A76G
# [7] = biological target: T7, PUM1 PUF domain R2-RRQ N899R + Y900R (Homo sapiens) (UniProt Q14671)
# T7 sequence: T1 sequence with A72R, V73R, A76Q
# [8] = biological target: T8, PUM1 PUF domain R2-RRT N899R + Y900R + Q903T (Homo sapiens) (UniProt Q14671)
# T8 sequence: T1 sequence with A72R, V73R, A76T
# [9] = biological target: T9, PUM1 PUF domain R2-RRV N899R + Y900R + Q903V (Homo sapiens) (UniProt Q14671)
# T9 sequence: T1 sequence with A72R, V73R, A76V
# [10] = biological target: T10, PUM1 PUF domain R2-SIP N899S + Y900I + Q903P (UniProt Q14671)
# T10 sequence: T1 sequence with A72S, V73I, A76P
# [11] = biological target: T11, PUM1 PUF domain R6-AWG N1043A + Y1044W + Q1047G (Homo sapiens) (UniProt Q14671)
# T11 sequence: T1 sequence with A72N, V73Y, A76Q, N216A, Y217W, Q220G
# [12] = biological target: T12, PUM1 PUF domain R6-AWS N1043A + Y1044W + Q1047S (Homo sapiens) (UniProt Q14671)
# T12 sequence: T1 sequence with A72N, V73Y, A76Q, N216A, Y217W, Q220S
# [13] = biological target: T13, PUM1 PUF domain R6-CYT N1043C + Q1047T (UniProt Q14671)
# T13 sequence: T1 sequence with A72N, V73Y, A76Q, N216C, Q220T
# [14] = biological target: T14, PUM1 PUF domain R6-GLR N1043G + Y1044L + Q1047R (Homo sapiens) (UniProt Q14671)
# T14 sequence: T1 sequence with A72N, V73Y, A76Q, N216G, Y217L, Q220R
# [15] = biological target: T15, PUM1 PUF domain R6-GWE N1043G + Y1044W + Q1047E (Homo sapiens) (UniProt Q14671)
# T15 sequence: T1 sequence with A72N, V73Y, A76Q, N216G, Y217W, Q220E
# [16] = biological target: T16, PUM1 PUF domain R6-RRK N1043R + Y1044R + Q1047K (Homo sapiens) (UniProt Q14671)
# T16 sequence: T1 sequence with A72N, V73Y, A76Q, N216R, Y217R, Q220K
# [17] = biological target: T17, PUM1 PUF domain R6-SRE N1043S + Y1044R + Q1047E (UniProt Q14671)
# T17 sequence: T1 sequence with A72N, V73Y, A76Q, N216S, Y217R, Q220E
# [18] = biological target: T18, PUM1 PUF domain R6-TFE N1043T + Y1044F + Q1047E (UniProt Q14671)
# T18 sequence: T1 sequence with A72N, V73Y, A76Q, N216T, Y217F, Q220E
# [19] = biological target: T19, PUM1 PUF domain R6-TRE N1043T + Y1044R + Q1047E (UniProt Q14671)
# T19 sequence: T1 sequence with A72N, V73Y, A76Q, N216T, Y217R, Q220E
# [20] = biological target: T20, PUM1 PUF domain R1-NWG S863N + R864W + Q867G (UniProt Q14671)
# T20 sequence: T1 sequence with S36N, R37W, Q40G, A72N, V73Y, A76Q
sequence,measurement,setting,value
GGCUAGAACUAGUGGAUCCCCCGGCGCCCGGCGGCUCGAGCCCGGGUAAGUGUAAAUAGUCUGCAUGCCGCCGGGCGCCAUGCCUGCAGGUCGACUCUAGAAAACAUG,binding signal (log2 enrichment (interaction score)),[1],< -8.36
same,binding signal (log2 enrichment (interaction score)),[2],< -7.31
same,binding signal (log2 enrichment (interaction score)),[3],0.12
same,binding signal (log2 enrichment (interaction score)),[4],< -6.86
same,binding signal (log2 enrichment (interaction score)),[5],-2.87
same,binding signal (log2 enrichment (interaction score)),[6],-4.94
same,binding signal (log2 enrichment (interaction score)),[7],-5.99
same,binding signal (log2 enrichment (interaction score)),[8],-3.68
same,binding signal (log2 enrichment (interaction score)),[9],-2.72
same,binding signal (log2 enrichment (interaction score)),[10],< -6.21
same,binding signal (log2 enrichment (interaction score)),[11],-1.95
same,binding signal (log2 enrichment (interaction score)),[12],-2.33
same,binding signal (log2 enrichment (interaction score)),[13],< -6.41
same,binding signal (log2 enrichment (interaction score)),[14],-5.04
same,binding signal (log2 enrichment (interaction score)),[15],-4.47
same,binding signal (log2 enrichment (interaction score)),[16],-1.3
same,binding signal (log2 enrichment (interaction score)),[17],< -7.75
same,binding signal (log2 enrichment (interaction score)),[18],-4.83
same,binding signal (log2 enrichment (interaction score)),[19],< -6.77
GGCUAGAACUAGUGGAUCCCCCGGCGCCCGGCGGCUCGAGCCCGGGUAAGUGUAAAUCGUCUGCAUGCCGCCGGGCGCCAUGCCUGCAGGUCGACUCUAGAAAACAUG,binding signal (log2 enrichment (interaction score)),[20],< -7.92
GGCUAGAACUAGUGGAUCCCCCGGCGCCCGGCGGCUCGAGCCCGGGUAAGUGUAAAUGGUCUGCAUGCCGCCGGGCGCCAUGCCUGCAGGUCGACUCUAGAAAACAUG,binding signal (log2 enrichment (interaction score)),[20],-9.05
GGCUAGAACUAGUGGAUCCCCCGGCGCCCGGCGGCUCGAGCCCGGGUAAGUGAAAAUAGUCUGCAUGCCGCCGGGCGCCAUGCCUGCAGGUCGACUCUAGAAAACAUG,binding signal (log2 enrichment (interaction score)),[14],-6.05
same,binding signal (log2 enrichment (interaction score)),[15],-0.53
same,binding signal (log2 enrichment (interaction score)),[16],-4.38
same,binding signal (log2 enrichment (interaction score)),[17],-8.78
same,binding signal (log2 enrichment (interaction score)),[18],-3.86
same,binding signal (log2 enrichment (interaction score)),[19],-6.37
GGCUAGAACUAGUGGAUCCCCCGGCGCCCGGCGGCUCGAGCCCGGGUAAGUGGAAAUAGUCUGCAUGCCGCCGGGCGCCAUGCCUGCAGGUCGACUCUAGAAAACAUG,binding signal (log2 enrichment (interaction score)),[11],-7.23
same,binding signal (log2 enrichment (interaction score)),[12],-3.79
same,binding signal (log2 enrichment (interaction score)),[13],< -8.04
GGCUAGAACUAGUGGAUCCCCCGGCGCCCGGCGGCUCGAGCCCGGGUAAGUGUAAAAAGUCUGCAUGCCGCCGGGCGCCAUGCCUGCAGGUCGACUCUAGAAAACAUG,binding signal (log2 enrichment (interaction score)),[1],< -9.39
same,binding signal (log2 enrichment (interaction score)),[2],< -6.03
same,binding signal (log2 enrichment (interaction score)),[3],1.85
same,binding signal (log2 enrichment (interaction score)),[4],< -6.94
same,binding signal (log2 enrichment (interaction score)),[5],-0.85
same,binding signal (log2 enrichment (interaction score)),[6],-1.88
same,binding signal (log2 enrichment (interaction score)),[7],-0.2
same,binding signal (log2 enrichment (interaction score)),[8],-1.11
same,binding signal (log2 enrichment (interaction score)),[9],-0.72
same,binding signal (log2 enrichment (interaction score)),[10],-6.02

# At a glance, some entries already given:
sequence,measurement,setting,value
GGCUAGAACUAGUGGAUCCCCCGGCGCCCGGCGGCUCGAGCCCGGGUAAGUGUAAAUAGUCUGCAUGCCGCCGGGCGCCAUGCCUGCAGGUCGACUCUAGAAAACAUG,binding signal (log2 enrichment (interaction score)),[18],-4.83
same,binding signal (log2 enrichment (interaction score)),[19],< -6.77
GGCUAGAACUAGUGGAUCCCCCGGCGCCCGGCGGCUCGAGCCCGGGUAAGUGUAAAUCGUCUGCAUGCCGCCGGGCGCCAUGCCUGCAGGUCGACUCUAGAAAACAUG,binding signal (log2 enrichment (interaction score)),[20],< -7.92
